Like-named read-outs stand apart in the source and are kept apart here. No constants are given. Whether binding was seen depends on the method and setting. In cells and extracts the contact can be indirect. Some binding calls cover weakened binding; strength is not graded here.
What was measured:
[1] = target: ZTF-11::GFP (Zinc-finger Transcription Factor-11, endogenous GFP knock-in) (C. elegans (endogenous, tagged locus)) (UniProt O02274); assay: co-IP; single molecule pull-down (SiMPull), imaging-based co-immunoprecipitation: worm lysates (7 mg/ml; 50 mM HEPES pH 7.7, 50 mM KCl, 2 mM MgCl2, 250 mM sucrose, 1 mM EDTA, then 100 mM NaCl and 1% Triton X-100) on quartz slides coated with or without biotinylated anti-GFP antibody to hold ZTF-11::GFP; mCherry spots counted by TIRF microscopy
[2] = target: ZTF-11::GFP (Zinc-finger Transcription Factor-11, endogenous GFP knock-in) (C. elegans (endogenous, tagged locus)) (UniProt O02274); assay: as above; remark: listed apart in the source

Sequences of proteins named here, by UniProt entry; tags and fusion partners are left off.
UniProt O02274: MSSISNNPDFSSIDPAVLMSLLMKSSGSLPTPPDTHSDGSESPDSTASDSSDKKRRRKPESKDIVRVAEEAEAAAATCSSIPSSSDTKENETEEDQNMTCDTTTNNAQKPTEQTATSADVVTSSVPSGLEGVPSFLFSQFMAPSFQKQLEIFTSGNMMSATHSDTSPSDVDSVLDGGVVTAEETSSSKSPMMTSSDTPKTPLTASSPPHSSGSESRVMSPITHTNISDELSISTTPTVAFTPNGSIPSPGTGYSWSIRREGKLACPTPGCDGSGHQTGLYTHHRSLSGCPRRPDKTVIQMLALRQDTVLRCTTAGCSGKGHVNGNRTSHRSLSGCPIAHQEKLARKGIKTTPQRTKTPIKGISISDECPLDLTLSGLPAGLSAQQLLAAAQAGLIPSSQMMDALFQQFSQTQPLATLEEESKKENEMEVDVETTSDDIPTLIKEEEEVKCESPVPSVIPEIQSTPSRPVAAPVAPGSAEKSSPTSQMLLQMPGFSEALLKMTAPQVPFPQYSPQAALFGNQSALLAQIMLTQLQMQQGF
UniProt A5JYW9: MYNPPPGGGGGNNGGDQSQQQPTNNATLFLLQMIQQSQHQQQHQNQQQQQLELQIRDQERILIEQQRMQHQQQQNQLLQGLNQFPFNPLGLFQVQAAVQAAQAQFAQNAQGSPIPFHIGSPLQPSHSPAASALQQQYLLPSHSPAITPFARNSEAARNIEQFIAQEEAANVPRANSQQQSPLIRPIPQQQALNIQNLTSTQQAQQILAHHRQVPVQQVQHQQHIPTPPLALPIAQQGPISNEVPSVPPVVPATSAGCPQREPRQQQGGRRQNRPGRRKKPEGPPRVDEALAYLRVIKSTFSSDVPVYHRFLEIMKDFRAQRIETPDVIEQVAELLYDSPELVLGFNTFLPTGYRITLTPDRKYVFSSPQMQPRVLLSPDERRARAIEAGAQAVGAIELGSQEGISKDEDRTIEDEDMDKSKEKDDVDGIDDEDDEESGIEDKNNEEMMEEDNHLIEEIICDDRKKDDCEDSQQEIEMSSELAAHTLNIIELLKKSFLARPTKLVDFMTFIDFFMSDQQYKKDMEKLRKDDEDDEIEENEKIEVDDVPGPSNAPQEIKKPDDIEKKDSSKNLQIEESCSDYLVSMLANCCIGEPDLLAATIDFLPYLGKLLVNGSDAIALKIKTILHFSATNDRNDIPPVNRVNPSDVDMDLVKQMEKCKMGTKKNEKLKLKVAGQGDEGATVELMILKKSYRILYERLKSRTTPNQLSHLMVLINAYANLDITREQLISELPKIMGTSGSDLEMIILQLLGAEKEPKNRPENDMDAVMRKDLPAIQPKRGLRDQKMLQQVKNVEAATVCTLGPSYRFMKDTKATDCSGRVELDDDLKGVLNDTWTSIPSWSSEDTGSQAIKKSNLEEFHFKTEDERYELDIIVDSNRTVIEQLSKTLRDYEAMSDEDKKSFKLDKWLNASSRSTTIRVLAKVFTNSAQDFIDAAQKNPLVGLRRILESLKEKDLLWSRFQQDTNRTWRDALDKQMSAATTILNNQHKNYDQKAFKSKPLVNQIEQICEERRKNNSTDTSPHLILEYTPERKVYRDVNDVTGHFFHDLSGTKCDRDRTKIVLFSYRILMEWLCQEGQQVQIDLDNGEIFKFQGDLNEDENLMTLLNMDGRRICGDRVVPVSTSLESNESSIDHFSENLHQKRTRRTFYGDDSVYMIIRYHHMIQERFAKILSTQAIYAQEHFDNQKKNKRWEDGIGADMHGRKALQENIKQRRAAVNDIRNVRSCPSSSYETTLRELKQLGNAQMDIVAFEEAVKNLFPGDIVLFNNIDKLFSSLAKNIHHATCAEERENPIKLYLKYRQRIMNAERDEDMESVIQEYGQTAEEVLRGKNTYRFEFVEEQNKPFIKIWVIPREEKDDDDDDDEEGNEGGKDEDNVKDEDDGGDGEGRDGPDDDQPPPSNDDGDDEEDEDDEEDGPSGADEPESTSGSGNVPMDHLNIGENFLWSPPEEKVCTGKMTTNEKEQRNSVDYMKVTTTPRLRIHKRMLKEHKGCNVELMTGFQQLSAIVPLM

binding [1]	binding [2]	Molecule
binds weakly	–	SIN-3::mCherry (endogenous knock-in) (from UniProt A5JYW9 1-1507)
–	binds	RBA-1::mCherry (endogenous knock-in) (protein, UniProt P90917 1-412) MSEAESCEETSKEHRIWKKNVPYLYDTVVTKEVEWPSLSVQWMPDVTKTENSDSSMHRMIHGTHTCGGVQNHLMISKFTITTDTPEFDDAKWDSEREEFGGYGEGSAAKWDTEIKINHPGEVHRARYMPHNPFIIASRGPSDDVYIFDYTKHPSEPKDTKFRPQLRLKGHEGEGYGMSWSNTREGHLLTAGDDGMICHWDINANQTISGQIVPQSKFKGHSSNAEDVSFHALHNFVFGSVGDDRKLNLWDLRQSKPQLTAVGHTAEVNCITFNPFSEYILATGSVDKTVALWDMRNMRKKMYTLKHHNDEIFQVSFSPHYETVLASSGSDDRVIVWDISKIQDPSSSSAASSDSVPPEVIFIHAGHTGKVADFSWNPNRPWTICSSDEFNALQVWEVSNSLVSSEKWETEMI
–	binds	mCherry::LIN-9 (endogenous knock-in) (protein, UniProt P30630 1-644) MSSAVRSPRKKAASDTSDPDRTSSPYSLRETSKVPSRYRNEELYLSPSRSIKRTGSPKKSPAKRLNGGRDSPSVNSLTRNSSLTMLAKAALDYESSSCALEYIFQPKEERRPPRRALALSPPPAPSNDLLAKDLEMIEMHQNLVAGLDDLDNPANMTNEAVEHRDTQSFFNMFSTDQERSAMMKQFKTYKNQTSEDVSTFMRANIKKLYNLLRYKKARQWVMCEFFYSAIDEQIFKEENEFATIIRESFPNLKNWNLTRIEWRSIRKLLGKPRRCSKVFFEEERMYLEEKRMKIRSVYEGSYLNDPSIDLKDLPAKLPRPMVVGNRVFARIRNPYDGIYSGIIDAVIPKGFRIIFDKPDIPPTLVSDTEILLDGKLDLLSIAYFIEQANSKLPSGVRPFVAAVRDSSHPHLVRDVLVSRKIERSGGPLMGPNDERLNGKNAEMVGNFPLKFLVNLVKLTKLIDIKKGLIRQLNELNADAEIQNMTSDKYSKAFQEKYAKTIIDLEHVNQNIDINMNGIQDHHMYFSSNDISTSNMKPEAVRQMCSQQAGRFVEHCNQGLNVENVHALTLIQSLTAVLLQVRTMGTQKISAVDLQSLGDAISEIRTAIHPRNVAFFQDYVEVHMKQFHTIMLESGALAGTVSNRK
–	binds	LIN-52::mCherry (endogenous knock-in) (protein, UniProt Q10120 1-161) MSRPLGFIGYEFGDDEMFVQQMIEKKSNAEQAKMLEQQKKMLECTETMPEESEPVPMKCLDFEEAFQSESVSKGYESPYKNISFLKEDAVTVNTMSHCPADDIAKLIRNIQNSVYTLGIEEARQCRRGKLLNVLKPTGSASPRYLQPTPPKNVAEETTGSQ

Source: PMC6684318
